For the test, the system named is P388 leukemia ip, CD2F1 mice, survival T/C. As to the kind of experiment: NCI In Vivo Anticancer Drug Screen. Data for tumor model P388 Leukemia (intraperitoneal) in CD2F1 (CDF1) mice. The following applies: T/C endpoint: median survival time, higher T/C = longer survival.
Where [1] appears, read: dose: 100.0 mg/kg/injection, schedule: Q01DX005 (ip), vehicle: saline.
Setting [2] is: dose: 200.0 mg/kg/injection, schedule: Q01DX005 (ip), vehicle: saline.
[3] abbreviates: dose: 100.0 mg/kg/injection, schedule: Q01DX009 (ip), vehicle: saline.
Setting [4] is: dose: 50.0 mg/kg/injection, schedule: Q01DX009 (ip), vehicle: Klucel (hydroxypropylcellulose) (HPC).
Where [5] appears, read: dose: 50.0 mg/kg/injection, schedule: Q01DX009 (ip), vehicle: saline with Tween-80.
Setting [6] is: dose: 50.0 mg/kg/injection, schedule: Q01DX009 (ip), vehicle: saline.
[7] abbreviates: dose: 100.0 mg/kg/injection, schedule: Q01DX009 (ip), vehicle: saline with Tween-80.
[8] abbreviates: dose: 64.0 mg/kg/injection, schedule: Q01DX001 (ip), vehicle: water.
The mark [9] stands for this setting: dose: 200.0 mg/kg/injection, schedule: Q01DX009 (ip), vehicle: saline with Tween-80.

Results on 25 compounds are retold here after PubChem BioAssay AID330 (DTP/NCI, 2004).

The list shows only some results of the screen, not a fair sample: it is rich in T/C values a quarter to a half above the control, in often repeated tests (any T/C) and in doses without a T/C. Further doses and runs are listed elsewhere. T/C gives the treated animals as a percentage of the vehicle group. Some entries give survivors of the animals treated and no T/C: the source files T/C as zero there, which appears to mark a toxic dose or a test without result, not a measured value. Some survivor counts are full or nearly so, which does not show that the dose was tolerated: the source hardly ever lists a survival T/C far under the control, and the zero likely stands for such cases as well. Survivors were counted at the toxicity check, usually on the fifth day, unless a day is given; later deaths do not show. Schedule codes are those of the source, read here as Q, the interval in days (D) or hours (H), X, the number of doses. Some entries hold several experiments; the results are listed from low to high. Some structures stand for samples that the source files as different forms (salt, stereo form or complex); doses refer to the form tested. Where survival is the endpoint, the PubChem record calls one and a half times the control and up active, and a quarter to a half above the control has no call in these data; cut-offs in other NCI protocols can differ.

Take `CC1=C(C2CO2)C(=O)C(C)=C(C2CO2)C1=O` (stereo not given): the survivor count is given as 1 of 6 (dose: 25.0 mg/kg/injection, schedule: Q04DX002 (ip), vehicle: Klucel (hydroxypropylcellulose) (HPC)); 0 of 6 (dose: 50.0 mg/kg/injection, schedule: Q04DX002 (ip), vehicle: Klucel (hydroxypropylcellulose) (HPC)); 0 of 6 (dose: 100.0 mg/kg/injection, schedule: Q04DX002 (ip), vehicle: Klucel (hydroxypropylcellulose) (HPC)); 0 of 6 (dose: 200.0 mg/kg/injection, schedule: Q04DX002 (ip), vehicle: Klucel (hydroxypropylcellulose) (HPC)); 0 of 6 (dose: 400.0 mg/kg/injection, schedule: Q04DX002 (ip), vehicle: Klucel (hydroxypropylcellulose) (HPC)).
Consider `CCCCOc1ccc(C(=O)SCCCN=C(N)N)cc1`, for which the survivor count is 3 of 5 under setting [1]; 2 of 5 and 3 of 5 under setting [2].
For the compound `N#CCCC[n+]1cc2ccccc2c2ccccc21`, the survivor count under setting [2] is on record as 3 of 5.
As for `CCCCCN(CCCCC)CCCNc1c2c(nc3ccc(Cl)cc13)CCCC2`, the survivor count by setting is: under setting [1], 0 of 5; under setting [2], 0 of 5.
Turning to `CC1(C(F)(F)F)CC(=O)NN1` (stereo not given), the survivor count under setting [3] was 2 of 6.
As for `CCOC(=O)[C](=[N+]=[N-])[Hg][C](=[N+]=[N-])C(=O)OCC`, the survivor count runs as follows: (dose: 12.5 mg/kg/injection, schedule: Q04DX003 (ip), vehicle: saline) 0 of 6; (dose: 25.0 mg/kg/injection, schedule: Q04DX003 (ip), vehicle: saline) 0 of 6; (dose: 50.0 mg/kg/injection, schedule: Q04DX003 (ip), vehicle: saline) 0 of 6.
For the compound `CC(C)(C)OC1CCC2=CC(=O)CCC21C` (stereo not given), the T/C is 127 % of control (dose: 200.0 mg/kg/injection, schedule: Q04DX002 (ip), vehicle: other) and 133 % of control (dose: 400.0 mg/kg/injection, schedule: Q04DX002 (ip), vehicle: other).
`CCOc1c2c(nn(C)c1=O)Oc1ccccc1N2CCCN1CCOCC1`: the survivor count (dose: 120.0 mg/kg/injection, schedule: Q01DX005 (ip), vehicle: saline with Tween-80) is given as 0 of 6 and the survivor count (dose: 240.0 mg/kg/injection, schedule: Q01DX005 (ip), vehicle: saline with Tween-80) is given as 0 of 6.
Regarding `[CH3][Pb]([CH3])([CH3])[Cl]`, the survivor count (dose: 0.75 mg/kg/injection, schedule: Q01DX009 (ip), vehicle: saline) was 6 of 6; the survivor count (dose: 6.0 mg/kg/injection, schedule: Q01DX009 (ip), vehicle: saline) is 5 of 6 and 6 of 6.
On to `Oc1ccc(/C=N/NC(=S)NN2CCOCC2)nc1`, for which the survivor count under setting [4] was 6 of 6.
Consider `O=C(CC(=O)c1ccccc1)c1ccccc1.[Tl]`, for which the survivor count (dose: 25.0 mg/kg/injection, schedule: Q01DX009 (ip), vehicle: saline with Tween-80) was 6 of 6 and the survivor count under setting [5] is recorded as 4 of 6.
As to `[O-][n+]1ccccc1C[P+](c1ccccc1)(c1ccccc1)c1ccccc1`, the survivor count was 6 of 6 (dose: 6.25 mg/kg/injection, schedule: Q01DX009 (ip), vehicle: water); 6 of 6 (dose: 25.0 mg/kg/injection, schedule: Q01DX009 (ip), vehicle: water); 1 of 6 and 2 of 6 (dose: 100.0 mg/kg/injection, schedule: Q01DX009 (ip), vehicle: water).
In the case of `O=[N+]([O-])c1csc([N+](=O)[O-])c1`, the survivor count was 3 of 6 (dose: 75.0 mg/kg/injection, schedule: Q01DX009 (ip), vehicle: saline with Tween-80); 3 of 6 (dose: 150.0 mg/kg/injection, schedule: Q01DX009 (ip), vehicle: saline with Tween-80); 0 of 6 (dose: 300.0 mg/kg/injection, schedule: Q01DX009 (ip), vehicle: saline with Tween-80).
With `CNC(=O)OCc1c(COC(=O)NC)c(C)n(-c2ccc(Cl)cc2)c1C`, the T/C (dose: 12.5 mg/kg/injection, schedule: Q01DX009 (ip), vehicle: saline) was 145 % of control and the T/C (dose: 25.0 mg/kg/injection, schedule: Q01DX009 (ip), vehicle: saline) was 142 % of control. Besides, under setting [6], the survivor count was 5 of 6 and 6 of 6.
Regarding `Cc1cccc2c(-c3ccccc3)c3cccc[n+]3cc12`, the survivor count runs as follows: (dose: 12.5 mg/kg/injection, schedule: Q01DX005 (ip), vehicle: Klucel (hydroxypropylcellulose) (HPC)) 0 of 5; (dose: 25.0 mg/kg/injection, schedule: Q01DX005 (ip), vehicle: Klucel (hydroxypropylcellulose) (HPC)) 0 of 5.
Take `Cn1c(/C=C/CO)c(CO)c2c1C(=O)C=C(N1CC1)C2=O`: for the setting “dose: 6.0 mg/kg/injection, schedule: Q01DX005 (ip), vehicle: saline”, the survivor count is recorded as 0 of 6.
As for `Cc1ccc(C(=O)[Se][Se]C(=O)c2ccc(C)cc2)cc1`, the survivor count is given as 0 of 6 under setting [5] and 0 of 6 under setting [7].
For the compound `CC[C@@]12CN3CCc4c([nH]c5ccccc45)[C@@](C(=O)OC)(c4cc5c(cc4OC)N(C=O)[C@H]4[C@@](O)(C(=O)OC)[C@H](OC(C)=O)[C@]6(CC)C=CCN7CC[C@]54[C@@H]76)C[C@H](C3=O)[C@@H]1O2`, the T/C (dose: 16.0 mg/kg/injection, schedule: Q01DX001 (ip), vehicle: water) was 125 and 126 % of control; the T/C (dose: 32.0 mg/kg/injection, schedule: Q01DX001 (ip), vehicle: water) is 144 % of control; the T/C under setting [8] was 131 % of control. Further, the survivor count under setting [8] was 2 of 6.
For the compound `OCc1ccc2c(c1)CCC2`, the survivor count (dose: 100.0 mg/kg/injection, schedule: Q01DX009 (ip), vehicle: other) was 2 of 6 and the survivor count (dose: 200.0 mg/kg/injection, schedule: Q01DX009 (ip), vehicle: other) is 0 of 6.
`O=C1OCC/C1=C1/Nc2ccccc2NC1=O`: the survivor count under setting [7] is 6 of 6.
With `Cc1ccc(S(=O)(=O)NC(=O)OC23COCN2COC3)cc1`, the T/C is, setting by setting: under setting [9], 132 % of control; (dose: 400.0 mg/kg/injection, schedule: Q01DX009 (ip), vehicle: saline with Tween-80) 126 % of control.
Regarding `CC(C)CN=C(N)Nc1cccc(NC(=O)Nc2ccc(Cl)cc2)c1`, the survivor count is, setting by setting: under setting [7], 4 of 6; under setting [9], 0 of 6.
Regarding `CCCCC([Se])=NCCC(C)C`, the survivor count under setting [4] was 0 of 6; the survivor count (dose: 100.0 mg/kg/injection, schedule: Q01DX009 (ip), vehicle: Klucel (hydroxypropylcellulose) (HPC)) is listed as 0 of 6; the survivor count (dose: 200.0 mg/kg/injection, schedule: Q01DX009 (ip), vehicle: Klucel (hydroxypropylcellulose) (HPC)) is 0 of 6.
For `CCOC(=O)C(=CN(C)c1ccc(Cl)cc1)C(=O)OCC`, the survivor count runs as follows: under setting [6], 6 of 6; under setting [3], 6 of 6.
For `N#CC(C#N)=CNCC1CC1`, the survivor count by setting is: (dose: 120.0 mg/kg/injection, schedule: Q01DX005 (ip), vehicle: Klucel (hydroxypropylcellulose) (HPC)) 3 of 6; (dose: 240.0 mg/kg/injection, schedule: Q01DX005 (ip), vehicle: Klucel (hydroxypropylcellulose) (HPC)) 0 of 6.
